# According to the supplement of paper PMC8728848:
# The list shows a part of the results.
# B1: PX9961Q-bfa-504-27-504 (Bacteroides fragilis) (protein)
# chain: NDWLDRKPADGIPSEDAITNYNDALTARTGMYDGIQGNSNATSYYGARMFYYGDVRADDMQARTQGMRSSSCYEMLYTVDDAPNMWNIPYNVIRRANRLIEAINEKKVTDATEAQIGKIYSEALVVRALVHFDLVRIYGMPYTADNGASLGVPVIVKPLERNDLPSRNTVAEVYTQVITDLTDAINSGYLAKDQTPGYINEWAAKALLTRVYLTKGDNENALKVAEDIITNSPYKLWTNEEYVNAWYKSNGAHTNEMIFEVVNASNDDWTDRNGIAYLLNENGYADAIVTKSFMNMLSQDPKDVRIGMVLPAQYDKDLQEEYGDAKIFINKFPADKDDVGEMRLNNLPLLRLSEVYLSAAEAAAKLGGHQDKAAKYLNEIVQRANPEAKAISEADATVERIILERRKEMIGEGQRYFDALRNNETIVRYKDEGDKGYHYSLIKESQSFDRTYFRAILPIPVDETNVNPNLRAQQNPGY
# How the values were obtained:
# Experiment in all cases: glycan array binding signal (z-score within array); higher = stronger binding
# Conditions in all cases: glycan notation: IUPAC condensed, linker removed
# [1] = target: Gal(b1-4)Glc
# Procedure, shortened: (§1)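 From the Consortium for Functional Glycomics database, 3228 arrays were curated, keeping only those whose protein sequence was available. Binding is given as a within-array Z-score averaged across arrays sharing a protein sequence and across linkers. Negative Z-scores can be read as non-binding.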
# [2] = target: Gal(b1-4)Glc6S
# Procedure, shortened: as §1
# [3] = target: Gal(b1-4)GlcNAc
# Procedure, shortened: as §1
# [4] = target: Gal(b1-4)GlcNAc(a1-6)Gal(b1-4)GlcNAc
# Procedure, shortened: as §1
# [5] = target: Gal(b1-4)GlcNAc(b1-2)Man
# Procedure, shortened: as §1
# [6] = target: Gal(b1-4)GlcNAc(b1-2)Man(a1-3)Man(b1-4)GlcNAc(b1-4)GlcNAc
# Procedure, shortened: as §1
# [7] = target: Gal(b1-4)GlcNAc(b1-2)Man(a1-3)[Gal(b1-4)GlcNAc(b1-2)Man(a1-6)]Man(b1-4)GlcNAc(b1-4)GlcNAc
# Procedure, shortened: as §1
# [8] = target: Gal(b1-4)GlcNAc(b1-2)Man(a1-3)[Gal(b1-4)GlcNAc(b1-2)Man(a1-6)]Man(b1-4)GlcNAc(b1-4)[Fuc(a1-6)]GlcNAc
# Procedure, shortened: as §1
# [9] = target: Gal(b1-4)GlcNAc(b1-2)Man(a1-3)[Gal(b1-4)GlcNAc(b1-2)Man(a1-6)][Gal(b1-4)GlcNAc(b1-4)]Man(b1-4)GlcNAc(b1-4)[Fuc(a1-6)]GlcNAc
# Procedure, shortened: as §1
# [10] = target: Gal(b1-4)GlcNAc(b1-2)Man(a1-3)[Gal(b1-4)GlcNAc(b1-2)Man(a1-6)][GlcNAc(b1-4)]Man(b1-4)GlcNAc(b1-4)[Fuc(a1-6)]GlcNAc
# Procedure, shortened: as §1
# [11] = target: Gal(b1-4)GlcNAc(b1-2)Man(a1-3)[GlcNAc(b1-2)Man(a1-6)]Man(b1-4)GlcNAc(b1-4)GlcNAc
# Procedure, shortened: as §1
# [12] = target: Gal(b1-4)GlcNAc(b1-2)Man(a1-3)[GlcNAc(b1-4)][Gal(b1-4)GlcNAc(b1-2)Man(a1-6)]Man(b1-4)GlcNAc(b1-4)GlcNAc
# Procedure, shortened: as §1
# [13] = target: Gal(b1-4)GlcNAc(b1-2)Man(a1-3)[Man(a1-6)]Man(b1-4)GlcNAc(b1-4)GlcNAc
# Procedure, shortened: as §1
# [14] = target: Gal(b1-4)GlcNAc(b1-2)Man(a1-6)Man(b1-4)GlcNAc(b1-4)GlcNAc
# Procedure, shortened: as §1
# [15] = target: Gal(b1-4)GlcNAc(b1-2)Man(a1-6)[GlcNAc(b1-2)Man(a1-3)]Man(b1-4)GlcNAc(b1-4)GlcNAc
# Procedure, shortened: as §1
# [16] = target: Gal(b1-4)GlcNAc(b1-2)Man(a1-6)[Man(a1-3)]Man(b1-4)GlcNAc(b1-4)GlcNAc
# Procedure, shortened: as §1
# [17] = target: Gal(b1-4)GlcNAc(b1-2)[Gal(b1-4)GlcNAc(b1-4)]Man(a1-3)[Gal(b1-4)GlcNAc(b1-2)Man(a1-6)]Man(b1-4)GlcNAc(b1-4)GlcNAc
# Procedure, shortened: as §1
# [18] = target: Gal(b1-4)GlcNAc(b1-2)[Gal(b1-4)GlcNAc(b1-4)]Man(a1-3)[Gal(b1-4)GlcNAc(b1-2)[Gal(b1-4)GlcNAc(b1-6)]Man(a1-6)]Man(b1-4)GlcNAc(b1-4)GlcNAc
# Procedure, shortened: as §1
# [19] = target: Gal(b1-4)GlcNAc(b1-2)[Gal(b1-4)GlcNAc(b1-4)]Man(a1-3)[GlcNAc(b1-4)][Gal(b1-4)GlcNAc(b1-2)Man(a1-6)]Man(b1-4)GlcNAc(b1-4)GlcNAc
# Procedure, shortened: as §1
# [20] = target: Gal(b1-4)GlcNAc(b1-2)[Gal(b1-4)GlcNAc(b1-4)]Man(a1-3)[GlcNAc(b1-4)][Gal(b1-4)GlcNAc(b1-2)[Gal(b1-4)GlcNAc(b1-6)]Man(a1-6)]Man(b1-4)GlcNAc(b1-4)GlcNAc
# Procedure, shortened: as §1
# [21] = target: Gal(b1-4)GlcNAc(b1-2)[Gal(b1-4)GlcNAc(b1-6)]Man(a1-6)[Gal(b1-4)GlcNAc(b1-2)Man(a1-3)]Man(b1-4)GlcNAc(b1-4)GlcNAc
# Procedure, shortened: as §1
# [22] = target: Gal(b1-4)GlcNAc(b1-2)[Gal(b1-4)GlcNAc(b1-6)]Man(a1-6)[Gal(b1-4)GlcNAc(b1-2)Man(a1-3)]Man(b1-4)GlcNAc(b1-4)[Fuc(a1-6)]GlcNAc
# Procedure, shortened: as §1
# [23] = target: Gal(b1-4)GlcNAc(b1-2)[Gal(b1-4)GlcNAc(b1-6)]Man(a1-6)[GlcNAc(b1-4)][Gal(b1-4)GlcNAc(b1-2)Man(a1-3)]Man(b1-4)GlcNAc(b1-4)GlcNAc
# Procedure, shortened: as §1
# [24] = target: Gal(b1-4)GlcNAc(b1-2)[Gal(b1-4)GlcNAc(b1-6)]Man(a1-6)[GlcNAc(b1-4)][Gal(b1-4)GlcNAc(b1-2)[Gal(b1-4)GlcNAc(b1-4)]Man(a1-3)]Man(b1-4)GlcNAc(b1-4)[Fuc(a1-6)]GlcNAc
# Procedure, shortened: as §1
# [25] = target: Gal(b1-4)GlcNAc(b1-3)Gal(b1-3)GalNAc
# Procedure, shortened: as §1
# [26] = target: Gal(b1-4)GlcNAc(b1-3)Gal(b1-3)GlcNAc
# Procedure, shortened: as §1
# [27] = target: Gal(b1-4)GlcNAc(b1-3)Gal(b1-4)Glc
# Procedure, shortened: as §1
# [28] = target: Gal(b1-4)GlcNAc(b1-3)Gal(b1-4)GlcNAc
# Procedure, shortened: as §1
# [29] = target: Gal(b1-4)GlcNAc(b1-3)Gal(b1-4)GlcNAc(b1-2)Man(a1-3)[Gal(b1-4)GlcNAc(b1-3)Gal(b1-4)GlcNAc(b1-2)Man(a1-6)]Man(b1-4)GlcNAc(b1-4)GlcNAc
# Procedure, shortened: as §1
# [30] = target: Gal(b1-4)GlcNAc(b1-3)Gal(b1-4)GlcNAc(b1-2)Man(a1-3)[Gal(b1-4)GlcNAc(b1-3)Gal(b1-4)GlcNAc(b1-2)Man(a1-6)]Man(b1-4)GlcNAc(b1-4)[Fuc(a1-6)]GlcNAc
# Procedure, shortened: as §1
# [31] = target: Gal(b1-4)GlcNAc(b1-3)Gal(b1-4)GlcNAc(b1-2)[Gal(b1-4)GlcNAc(b1-3)Gal(b1-4)GlcNAc(b1-6)]Man(a1-6)[Gal(b1-4)GlcNAc(b1-3)Gal(b1-4)GlcNAc(b1-2)Man(a1-3)]Man(b1-4)GlcNAc(b1-4)GlcNAc
# Procedure, shortened: as §1
# [32] = target: Gal(b1-4)GlcNAc(b1-3)Gal(b1-4)GlcNAc(b1-2)[Gal(b1-4)GlcNAc(b1-3)Gal(b1-4)GlcNAc(b1-6)]Man(a1-6)[Gal(b1-4)GlcNAc(b1-3)Gal(b1-4)GlcNAc(b1-2)Man(a1-3)]Man(b1-4)GlcNAc(b1-4)[Fuc(a1-6)]GlcNAc
# Procedure, shortened: as §1
# [33] = target: Gal(b1-4)GlcNAc(b1-3)Gal(b1-4)GlcNAc(b1-3)Gal(b1-4)GlcNAc
# Procedure, shortened: as §1
# [34] = target: Gal(b1-4)GlcNAc(b1-3)Gal(b1-4)GlcNAc(b1-3)Gal(b1-4)GlcNAc(b1-2)Man(a1-3)[Gal(b1-4)GlcNAc(b1-3)Gal(b1-4)GlcNAc(b1-3)Gal(b1-4)GlcNAc(b1-2)Man(a1-6)]Man(b1-4)GlcNAc(b1-4)GlcNAc
# Procedure, shortened: as §1
# [35] = target: Gal(b1-4)GlcNAc(b1-3)Gal(b1-4)GlcNAc(b1-3)Gal(b1-4)GlcNAc(b1-2)Man(a1-3)[Gal(b1-4)GlcNAc(b1-3)Gal(b1-4)GlcNAc(b1-3)Gal(b1-4)GlcNAc(b1-2)Man(a1-6)]Man(b1-4)GlcNAc(b1-4)[Fuc(a1-6)]GlcNAc
# Procedure, shortened: as §1
# [36] = target: Gal(b1-4)GlcNAc(b1-3)Gal(b1-4)GlcNAc(b1-3)Gal(b1-4)GlcNAc(b1-2)[Gal(b1-4)GlcNAc(b1-3)Gal(b1-4)GlcNAc(b1-3)Gal(b1-4)GlcNAc(b1-6)]Man(a1-6)[Gal(b1-4)GlcNAc(b1-3)Gal(b1-4)GlcNAc(b1-3)Gal(b1-4)GlcNAc(b1-2)Man(a1-3)]Man(b1-4)GlcNAc(b1-4)[Fuc(a1-6)]GlcNAc
# Procedure, shortened: as §1
# [37] = target: Gal(b1-4)GlcNAc(b1-3)Gal(b1-4)GlcNAc(b1-3)Gal(b1-4)GlcNAc(b1-3)Gal(b1-4)GlcNAc(b1-2)Man(a1-3)[Gal(b1-4)GlcNAc(b1-3)Gal(b1-4)GlcNAc(b1-3)Gal(b1-4)GlcNAc(b1-3)Gal(b1-4)GlcNAc(b1-2)Man(a1-6)]Man(b1-4)GlcNAc(b1-4)GlcNAc
# Procedure, shortened: as §1
binder,measurement,setting,value
B1,glycan array binding signal (z-score),[1],-0.183
same,glycan array binding signal (z-score),[2],-0.694
same,glycan array binding signal (z-score),[3],0.022
same,glycan array binding signal (z-score),[4],1.56
same,glycan array binding signal (z-score),[5],0.113
same,glycan array binding signal (z-score),[6],-0.192
same,glycan array binding signal (z-score),[7],-0.612
same,glycan array binding signal (z-score),[8],0.164
same,glycan array binding signal (z-score),[9],-0.182
same,glycan array binding signal (z-score),[10],-0.897
same,glycan array binding signal (z-score),[11],-0.556
same,glycan array binding signal (z-score),[12],-0.747
same,glycan array binding signal (z-score),[13],-0.622
same,glycan array binding signal (z-score),[14],-0.661
same,glycan array binding signal (z-score),[15],-0.167
same,glycan array binding signal (z-score),[16],-0.621
same,glycan array binding signal (z-score),[17],-0.277
same,glycan array binding signal (z-score),[18],-0.731
same,glycan array binding signal (z-score),[19],-0.27
same,glycan array binding signal (z-score),[20],0.322
same,glycan array binding signal (z-score),[21],2.39
same,glycan array binding signal (z-score),[22],0.014
same,glycan array binding signal (z-score),[23],-0.41
same,glycan array binding signal (z-score),[24],-0.323
same,glycan array binding signal (z-score),[25],-0.068
same,glycan array binding signal (z-score),[26],-0.556
same,glycan array binding signal (z-score),[27],-0.506
same,glycan array binding signal (z-score),[28],-0.406
same,glycan array binding signal (z-score),[29],1.45
same,glycan array binding signal (z-score),[30],0.652
same,glycan array binding signal (z-score),[31],-0.936
same,glycan array binding signal (z-score),[32],0.479
same,glycan array binding signal (z-score),[33],-0.686
same,glycan array binding signal (z-score),[34],2.45
same,glycan array binding signal (z-score),[35],-0.039
same,glycan array binding signal (z-score),[36],0.655
same,glycan array binding signal (z-score),[37],2.49

# Some of the entries so far, bar-delimited:
binder | measurement | setting | value
B1 | glycan array binding signal (z-score) | [13] | -0.622
same | glycan array binding signal (z-score) | [14] | -0.661
